Data from patent US10441669B2, “Multifunctional chelators, complexes, and compositions thereof, and methods of using same” (ILLINOIS INSTITUTE OF TECHNOLOGY, priority 2013, dated 2019).
Several values for one entry are separate records, joined by “and”; a condition that tells them apart may be missing. Identical values can stand only once.

Columns and labels:
Type in all cases: physicochemical
[1] = Radiolabeling efficiency of 3p-C chelators with 90Y; conditions: ITLC
[2] = Radiolabeling efficiency of 3p-C chelators with 177Lu; conditions: ITLC
[3] = Radiolabeling efficiency of pyridyl-based chelators with 177Lu; conditions: RT
[4] = Radiolabeling of pyridyl-containing chelators with 64Cu; conditions: RT
[5] = Radiolabeling kinetics of chelators A-F with 64Cu; conditions: 0.25M NH4OAc, pH 5.5, RT, ITLC
[6] = Maximum specific activity of chelators A-F with 64Cu; conditions: 0.1 M NH4OAc, pH 5.5, 37° C., 1 h
[7] = Radiolabeling efficiency of bimodal chelators with 177Lu; conditions: pH 5.5, RT, ITLC

Structure (SMILES): O=C(O)CN1CCN(CC(=O)O)CCN(CC(CCCc2ccc([N+](=O)[O-])cc2)N(CC(=O)O)CC(=O)O)CCN(CC(=O)O)CC1 (stereo not shown) [Chelator 3p-C-DEPA, reference compound]
- Radiolabeling efficiency (%) ([1]; pH 5.5, RT, 1 min): 89% and 89.3 ± 2.8%
- Radiolabeling efficiency (%) ([1]; pH 5.5, RT, 10 min): 96.8 ± 0.5%
- Radiolabeling efficiency (%) ([1]; pH 5.5, RT, 20 min): 98.0 ± 0.9%
- Radiolabeling efficiency (%) ([1]; pH 5.5, RT, 30 min): 97.9 ± 0.2%
- Radiolabeling efficiency (%) ([1]; pH 5.5, RT, 60 min): 98.5 ± 0.2%
- Radiolabeling efficiency (%) ([2]; pH 5.5, RT, 1 min): 94% and 93.9 ± 1.3%
- Radiolabeling efficiency (%) ([2]; pH 5.5, RT, 10 min): 98.7 ± 0.2%
- Radiolabeling efficiency (%) ([2]; pH 5.5, RT, 20 min): 99.2 ± 0.3%
- Radiolabeling efficiency (%) ([2]; pH 5.5, RT, 30 min): 99.4 ± 0.1%
- Radiolabeling efficiency (%) ([2]; pH 5.5, RT, 60 min): 99.3 ± 0.2%

Structure (SMILES): NCCCNC(=O)c1ccc(CN(CCN2CCN(CC(=O)O)CCN(CC(=O)O)CC2)CC(=O)O)nc1 [Chelator 10]
- Lu-177 Labeling Efficiency (%) ([3]; pH 5.5, 1 min): 15.6 ± 1.9%
- Lu-177 Labeling Efficiency (%) ([3]; pH 5.5, 10 min): 76.4 ± 0.14%
- Lu-177 Labeling Efficiency (%) ([3]; pH 5.5, 30 min): 97.9 ± 0.42%
- Lu-177 Labeling Efficiency (%) ([3]; pH 5.5, 60 min): 99.5 ± 0.35%
- Labeling Efficiency (%) ([4]; pH 5.5, 1 min): 99.8 ± 0.14%
- Labeling Efficiency (%) ([4]; pH 5.5, 10 min): 100 ± 0.0%
- Labeling Efficiency (%) ([4]; pH 5.5, 30 min): 99.9 ± 0.14%

Structure (SMILES): O=C(O)CN1CCN(CC(=O)O)CCN(CC(=O)CCc2ccc([N+](=O)[O-])cc2)CC1 [Chelator C, 2-[4-(carboxymethyl)-7-[4-(4-nitrophenyl)-2-oxobutyl]-1,4,7-triazonan-1-yl]acetic acid]
- Bound complex (%), radiolabeling efficiency ([5]; Time (h) 1): 99.3 ± 0.3%
- Bound complex (%), radiolabeling efficiency ([5]; Time (h) 10): 99.2 ± 0.9%
- Bound complex (%), radiolabeling efficiency ([5]; Time (h) 30): 99.5 ± 0.5%
- maximum specific activity [6]: 27.45 Ci/μmol

Structure (SMILES): O=C(O)CN1CCN(CC(=O)O)CCN(Cc2ccccn2)CC1 [Chelator E, 2-[4-(carboxymethyl)-7-(pyridin-2-ylmethyl)-1,4,7-triazonan-1-yl]acetic acid]
- Bound complex (%), radiolabeling efficiency ([5]; Time (h) 1): 99.9 ± 0.1%
- Bound complex (%), radiolabeling efficiency ([5]; Time (h) 10): 99.9 ± 0.1%
- Bound complex (%), radiolabeling efficiency ([5]; Time (h) 30): 99.9 ± 0.1%
- maximum specific activity [6]: 14.69 Ci/μmol

Structure (SMILES): O=C(O)CN1CCN(CC(=O)O)CCN(C(CCCc2ccc([N+](=O)[O-])cc2)C(=O)O)CC1 (stereo not shown) [Chelator 3p-C-NOTA, 2-[4,7-bis(carboxymethyl)-1,4,7-triazonan-1-yl]-5-(4-nitrophenyl)pentanoic acid]
- Radiolabeling efficiency (%) ([1]; pH 5.5, RT, 1 min): 10.3 ± 0.6%
- Radiolabeling efficiency (%) ([1]; pH 5.5, RT, 10 min): 50.8 ± 1.8%
- Radiolabeling efficiency (%) ([1]; pH 5.5, RT, 20 min): 73.9 ± 0.6%
- Radiolabeling efficiency (%) ([1]; pH 5.5, RT, 30 min): 82.7 ± 0.4%
- Radiolabeling efficiency (%) ([1]; pH 5.5, RT, 60 min): 69% and 89.3 ± 0.1%
- Radiolabeling efficiency (%) ([2]; pH 5.5, RT, 1 min): 17.5 ± 0.5%
- Radiolabeling efficiency (%) ([2]; pH 5.5, RT, 10 min): 81.3 ± 0.2%
- Radiolabeling efficiency (%) ([2]; pH 5.5, RT, 20 min): 95.0 ± 0.2%
- Radiolabeling efficiency (%) ([2]; pH 5.5, RT, 30 min): 99.1 ± 0.4%

Structure (SMILES): O=C(O)CNC(CCCc1ccc([N+](=O)[O-])cc1)CN1CCN(CC(=O)O)CCN(CC(=O)O)CC1 (stereo not shown) [Chelator 3p-C-NE3TA, 2-({1-[4,7-bis(carboxymethyl)-1,4,7-triazonan-1-yl]-5-(4-nitrophenyl)pentan-2-yl}amino)acetic acid]
- Radiolabeling efficiency (%) ([1]; pH 5.5, RT, 1 min): 3.1 ± 0.28%
- Radiolabeling efficiency (%) ([1]; pH 5.5, RT, 10 min): 22.5 ± 0.28%
- Radiolabeling efficiency (%) ([1]; pH 5.5, RT, 20 min): 37.6 ± 0.64%
- Radiolabeling efficiency (%) ([1]; pH 5.5, RT, 30 min): 49.1 ± 1.6%
- Radiolabeling efficiency (%) ([1]; pH 5.5, RT, 60 min): 84% and 68.7 ± 3.4%
- Radiolabeling efficiency (%) ([2]; pH 5.5, RT, 1 min): 6.7 ± 0.1%
- Radiolabeling efficiency (%) ([2]; pH 5.5, RT, 10 min): 36.6 ± 0.4%
- Radiolabeling efficiency (%) ([2]; pH 5.5, RT, 20 min): 63.2 ± 0.8%
- Radiolabeling efficiency (%) ([2]; pH 5.5, RT, 30 min): 78.1 ± 1.1%

Structure (SMILES): O=C(O)CN1CCN(CCN(CC(=O)O)Cc2ccccn2)CCN(CC(=O)O)CC1 [Chelator 4]
- Lu-177 Labeling Efficiency (%) ([3]; pH 5.5, 1 min): 38.4 ± 2.4%
- Lu-177 Labeling Efficiency (%) ([3]; pH 5.5, 5 min): 94.8 ± 0.35%
- Lu-177 Labeling Efficiency (%) ([3]; pH 5.5, 30 min): 99.5 ± 0.35%
- Lu-177 Labeling Efficiency (%) ([3]; pH 5.5, 60 min): 99.6 ± 0.28%
- Labeling Efficiency (%) ([4]; pH 5.5, 1 min): 99.9 ± 0.0%
- Labeling Efficiency (%) ([4]; pH 5.5, 10 min): 99.9 ± 0.0%
- Labeling Efficiency (%) ([4]; pH 5.5, 30 min): 99.9 ± 0.07%

Structure (SMILES): O=C(O)CN1CCN(CC(=O)O)CCN(CC(O)CCc2ccc([N+](=O)[O-])cc2)CC1 (stereo not shown) [Chelator D, 2-[4-(carboxymethyl)-7-[2-hydroxy-4-(4-nitrophenyl)butyl]-1,4,7-triazonan-1-yl]acetic acid]
- Bound complex (%), radiolabeling efficiency ([5]; Time (h) 1): 99.0 ± 0.0%
- Bound complex (%), radiolabeling efficiency ([5]; Time (h) 10): 99.6 ± 0.2%
- Bound complex (%), radiolabeling efficiency ([5]; Time (h) 30): 99.5 ± 0.4%
- maximum specific activity [6]: 1.18 Ci/μmol

Structure (SMILES): O=C(O)CN1CCN(CC(=O)O)CCN(Cc2cccs2)CC1 [Chelator F, 2-[4-(carboxymethyl)-7-(thiophen-2-ylmethyl)-1,4,7-triazonan-1-yl]acetic acid]
- Bound complex (%), radiolabeling efficiency ([5]; Time (h) 1): 99.8 ± 0.2%
- Bound complex (%), radiolabeling efficiency ([5]; Time (h) 10): 99.9 ± 0.2%
- Bound complex (%), radiolabeling efficiency ([5]; Time (h) 30): 99.8 ± 0.2%
- maximum specific activity [6]: 1.82 Ci/μmol

Structure (SMILES): O=C(O)CN1CCN(CC(=O)O)CCN(C(CCc2ccc([N+](=O)[O-])cc2)C(=O)O)CC1 (stereo not shown) [Chelator A, 2-[4,7-bis(carboxymethyl)-1,4,7-triazonan-1-yl]-4-(4-nitrophenyl)butanoic acid, reference compound]
- Bound complex (%), radiolabeling efficiency ([5]; Time (h) 1): 99.8 ± 0.1%
- Bound complex (%), radiolabeling efficiency ([5]; Time (h) 10): 99.8 ± 0.2%
- Bound complex (%), radiolabeling efficiency ([5]; Time (h) 30): 99.6 ± 0.3%
- maximum specific activity [6]: 4.87 Ci/μmol

Structure (SMILES): O=C(O)CN1CCN(CCCc2ccc([N+](=O)[O-])cc2)CCN(CC(=O)O)CC1 [Chelator B, 2-[4-(carboxymethyl)-7-[3-(4-nitrophenyl)propyl]-1,4,7-triazonan-1-yl]acetic acid]
- Bound complex (%), radiolabeling efficiency ([5]; Time (h) 1): 99.7 ± 0.1%
- Bound complex (%), radiolabeling efficiency ([5]; Time (h) 10): 99.6 ± 0.4%
- Bound complex (%), radiolabeling efficiency ([5]; Time (h) 30): 100 ± 0.0%
- maximum specific activity [6]: 51.73 Ci/μmol

Structure (SMILES): O=C(O)CNC(CCCc1ccc([N+](=O)[O-])cc1)CN1CCN(CC(=O)O)CCN(CC(=O)O)CCN(CC(=O)O)CC1 (stereo not shown) [Chelator 3p-C-DETA, 2-{[5-(4-nitrophenyl)-1-[4,7,10-tris(carboxymethyl)-1,4,7,10-tetraazacyclododecan-1-yl]pentan-2-yl]amino}acetic acid]
- Radiolabeling efficiency (%) ([1]; pH 5.5, RT, 1 min): 7%
- Radiolabeling efficiency (%) ([1]; pH 7, RT, 1 min): > 85% and 88.4 ± 1.9%
- Radiolabeling efficiency (%) ([1]; pH 7, RT, 10 min): > 99% and 99.2 ± 0.58%
- Radiolabeling efficiency (%) ([1]; pH 7, RT, 20 min): 99.3 ± 0.61%
- Radiolabeling efficiency (%) ([1]; pH 7, RT, 30 min): 99.2 ± 0.72%
- Radiolabeling efficiency (%) ([1]; pH 7, RT, 60 min): 99.5 ± 0.49%
- Radiolabeling efficiency (%) ([2]; pH 5.5, RT, 1 min): 21%
- Radiolabeling efficiency (%) ([2]; pH 7, RT, 1 min): > 85% and 85.2 ± 0.7%
- Radiolabeling efficiency (%) ([2]; pH 7, RT, 10 min): > 99% and 99.8 ± 0.3%
- Radiolabeling efficiency (%) ([2]; pH 7, RT, 20 min): 99.8 ± 0.1%
- Radiolabeling efficiency (%) ([2]; pH 7, RT, 30 min): 99.9 ± 0.1%
- Radiolabeling efficiency (%) ([2]; pH 7, RT, 60 min): 100.0 ± 0.1%

Structure (SMILES): O=C(O)CN(CCN1CCN(CCN(CC(=O)O)CC(=O)O)CCN(CC(CCCc2ccc([N+](=O)[O-])cc2)N(CC(=O)O)CC(=O)O)CC1)CC(=O)O (stereo not shown) [Chelator 2, 2-{[2-(4-{2-[bis(carboxymethyl)amino]-5-(4-nitrophenyl)pentyl}-7-{2-[bis(carboxy-methyl)amino]ethyl}-1,4,7-triazonan-1-yl)ethyl](carboxymethyl)amino}acetic acid]
- Radiolabeling efficiency (%) ([7]; 1 min): 81.6 ± 0.35%
- Radiolabeling efficiency (%) ([7]; 10 min): 99.4 ± 0.07%
- Radiolabeling efficiency (%) ([7]; 30 min): 99.8 ± 0.14%
- Radiolabeling efficiency (%) ([7]; 60 min): 99.8 ± 0.14%
